Data: patent publication US7303589B2 (L'Oreal S.A., priority 2003, dated 2007)

Experiments:
[1] = Color uptake on natural hair (90% natural white hairs), spectrocolorimeter L*a*b*; design: species or system human
Procedure: (§1) The compound was dissolved in deionized water and the pH was adjusted to 7.1 with dilute hydrochloric acid. The concentration of the compound in the medium was 1% by weight.
(§2) The dye solution thus obtained was applied to natural hair (90% white hairs) and chestnut-brown hair (tone height 4) with a bath ratio of 5:1, for 20 minutes at room temperature.
(§3) After dyeing, the hair was rinsed with water and dried at room temperature.
(§4) The color measurements were taken using a spectrocolorimeter (Minolta CM3600d, specular components included, illuminant D65, 10° angle).
Color Uptake on Natural Hair (90% of Natural White Hairs): […]

[2] = Color uptake on chestnut-brown hair, spectrocolorimeter L*a*b*; design: species or system human
Procedure: as §1, §2, §3, §4

[3] = dyed natural hair (90% white), 1% by weight in deionized water, pH 7.1, bath ratio 5:1, 20 minutes at room temperature, Minolta CM3600d, D65, 10°
[4] = dyed chestnut-brown hair (tone height 4), 1% by weight in deionized water, pH 7.1, bath ratio 5:1, 20 minutes at room temperature, Minolta CM3600d, D65, 10°

## CN(C)c1ccc(/C=C/c2cccc[n+]2CCCCCC[n+]2ccccc2/C=C/c2ccc(N(C)C)cc2)cc1.[Br-].[Br-] [Fluorescent Compound]
[1]; [3]
  L*: 47.05
  a*: 28.12
  b*: 42.62
[1]; natural hair (90% white), 1% by weight, pH 7.1, 20 minutes
  uptake of the dye into the hair (in words): satisfactorily taken up into the hair
[2]; chestnut-brown hair (tone height 4), 1% by weight, pH 7.1, 20 minutes
  uptake of the dye into the hair (in words): satisfactorily taken up into the hair
[2]; [4]
  L*: 23.66
  a*: 4.78
  b*: 5.53
